Test results taken from PMC8633436.
Results are given in words; binding and its absence hold for the method and conditions named. Binding seen in cells or lysates may run through a third protein. Some entries that bind do so weakly or less than the wild type.

By UniProt entry, the sequences of proteins in these tests, tags left out.
UniProt Q13118: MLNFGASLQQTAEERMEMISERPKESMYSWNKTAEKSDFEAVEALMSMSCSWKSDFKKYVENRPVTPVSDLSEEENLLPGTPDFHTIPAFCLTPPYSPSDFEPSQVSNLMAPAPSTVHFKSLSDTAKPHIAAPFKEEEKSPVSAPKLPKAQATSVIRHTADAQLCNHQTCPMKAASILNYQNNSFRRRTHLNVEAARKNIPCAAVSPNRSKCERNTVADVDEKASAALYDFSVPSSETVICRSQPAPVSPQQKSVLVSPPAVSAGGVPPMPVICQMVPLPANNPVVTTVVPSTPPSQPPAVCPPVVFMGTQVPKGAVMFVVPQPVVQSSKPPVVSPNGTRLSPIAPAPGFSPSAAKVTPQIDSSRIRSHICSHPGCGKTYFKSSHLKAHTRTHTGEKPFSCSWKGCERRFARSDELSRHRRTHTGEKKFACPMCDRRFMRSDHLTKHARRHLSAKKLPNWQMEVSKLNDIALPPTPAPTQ
UniProt P54619: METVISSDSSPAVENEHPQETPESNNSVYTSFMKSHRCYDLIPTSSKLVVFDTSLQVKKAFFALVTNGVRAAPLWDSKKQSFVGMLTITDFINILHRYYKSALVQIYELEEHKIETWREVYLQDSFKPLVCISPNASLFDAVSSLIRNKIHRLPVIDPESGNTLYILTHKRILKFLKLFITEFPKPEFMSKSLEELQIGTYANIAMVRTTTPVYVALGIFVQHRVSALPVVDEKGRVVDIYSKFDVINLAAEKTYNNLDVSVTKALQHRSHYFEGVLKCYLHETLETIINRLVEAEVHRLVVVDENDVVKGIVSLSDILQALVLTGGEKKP

Molecular target: Krüppel-like factor 10 (KLF10) (human (endogenous in HepG2)) (UniProt Q13118)
Test: co-IP; HepG2 cell extracts incubated with anti-KLF10 (normal mouse immunoglobulin as negative control) 1 h at 4°C, protein G Sepharose 4 h; Western blot for AMPK α1, β1, γ1

AMP-activated protein kinase regulatory subunit γ1 (AMPK γ1) (from UniProt P54619 1-331)
binding: binds
